Only a part is listed here, and it is no random draw. At the low end of the ranking, values are background and their order means little.

Amino acid sequences for entries named in this document (tags omitted). A change or cut given only in a name is not applied to a line headed by its entry.
UniProt Q9Y603: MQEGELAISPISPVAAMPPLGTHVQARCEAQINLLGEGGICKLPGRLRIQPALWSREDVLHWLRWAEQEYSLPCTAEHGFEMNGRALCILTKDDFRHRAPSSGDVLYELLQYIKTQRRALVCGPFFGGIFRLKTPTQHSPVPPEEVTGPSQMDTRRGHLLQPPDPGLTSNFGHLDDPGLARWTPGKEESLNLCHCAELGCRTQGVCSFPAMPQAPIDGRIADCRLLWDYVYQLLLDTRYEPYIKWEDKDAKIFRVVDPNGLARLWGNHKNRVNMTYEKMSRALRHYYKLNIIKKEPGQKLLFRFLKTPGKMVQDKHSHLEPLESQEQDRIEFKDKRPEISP
UniProt P41212: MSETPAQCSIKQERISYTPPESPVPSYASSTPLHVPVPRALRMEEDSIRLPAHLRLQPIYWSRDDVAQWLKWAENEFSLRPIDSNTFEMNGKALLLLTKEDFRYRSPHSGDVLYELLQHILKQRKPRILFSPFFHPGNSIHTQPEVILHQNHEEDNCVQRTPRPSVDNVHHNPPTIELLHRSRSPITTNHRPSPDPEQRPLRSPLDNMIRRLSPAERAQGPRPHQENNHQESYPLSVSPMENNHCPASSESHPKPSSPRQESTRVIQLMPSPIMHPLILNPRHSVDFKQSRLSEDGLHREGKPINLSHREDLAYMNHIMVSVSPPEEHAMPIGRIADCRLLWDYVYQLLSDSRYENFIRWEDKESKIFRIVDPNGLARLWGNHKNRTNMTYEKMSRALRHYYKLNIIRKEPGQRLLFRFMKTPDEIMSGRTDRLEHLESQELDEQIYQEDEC

Assay in all cases: DAPPL (digital affinity profiling via proximity ligation, sequencing)
Conditions in all cases: 10 mM Tris-HCl pH 7.5, 50 mM NaCl, 1 mM DTT, 4% glycerol, room temperature, 30 min; GST-TFs on glutathione beads, 16-mer random dsDNA library, 0.1% …; high values mean tight binding; double strand, one strand shown; scale: fold enrichment (6-mer frequency, TF over GST control)

One experiment has as its target T1, ELF3 (UniProt P78545).
T1 sequence: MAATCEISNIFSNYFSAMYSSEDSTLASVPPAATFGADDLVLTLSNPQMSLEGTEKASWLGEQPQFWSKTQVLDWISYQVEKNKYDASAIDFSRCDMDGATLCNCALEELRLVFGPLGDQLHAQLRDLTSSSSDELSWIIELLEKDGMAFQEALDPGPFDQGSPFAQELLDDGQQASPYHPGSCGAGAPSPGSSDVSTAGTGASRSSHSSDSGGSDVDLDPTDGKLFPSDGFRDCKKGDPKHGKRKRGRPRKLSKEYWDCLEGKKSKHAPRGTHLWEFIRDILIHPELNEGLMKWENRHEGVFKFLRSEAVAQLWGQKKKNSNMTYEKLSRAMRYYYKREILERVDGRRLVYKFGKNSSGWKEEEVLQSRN

For a further experiment, the target named is ETV7 (UniProt Q9Y603).
A further experiment has as its target ETV6 (UniProt P41212).

Turning to ATTGTG, the binding signal in the experiment with ELF3 stood at 0.898; in the experiment with ETV7, 0.972; with ETV6 it was 0.911.
As to TCGAGA, the binding signal was 0.711 in the experiment with ELF3, 0.675 in the experiment with ETV7 and 0.65 in the experiment with ETV6.
With GCCTGA, the binding signal amounted to 0.97 in the experiment with ELF3, 0.894 in the experiment with ETV7 and 0.967 with ETV6.
The matching figures for GCTAAG: 0.991, 0.999 and 0.983.
For the sequence CAGATA, the binding signal in the experiment with ELF3 was 0.867; with ETV7, 0.909; in the experiment with ETV6, 0.824.
The matching figures for GAACTG: 0.936, 0.895 and 0.984.
The matching figures for GCCTGT: 0.83, 0.977 and 0.87.
Consider TGAATG, for which the binding signal in the experiment with ELF3 came out at 1.08; with ETV7 it was 1.21; with ETV6 it was 1.22.
AGGATT: the binding signal turned out to be 0.792 with ELF3, 0.878 with ETV7 and 0.989 with ETV6.
The corresponding values for GTTGGT are 0.872, 1.02 and 0.929.
The corresponding values for TGAAGG are 0.994, 0.934 and 0.94.
The matching figures for GAGAAA: 0.663, 0.792 and 0.744.
GCGTTA: the binding signal with ELF3 was found to be 0.98; in the experiment with ETV7, 0.974; in the experiment with ETV6, 0.886.
TAAAGC: the binding signal came out at 1.06 in the experiment with ELF3, 1.04 with ETV7 and 1.02 in the experiment with ETV6.
With AGGAAT, the binding signal with ELF3 was 0.915; with ETV7, 0.822; with ETV6 it was 0.808.
Turning to CATAAG, the binding signal in the experiment with ELF3 worked out at 0.993; with ETV7, 0.921; with ETV6, 0.884.
With TGGCGC, the results for the binding signal in the experiment with ELF3, with ETV7 and with ETV6 were 0.977, 0.846 and 0.916, respectively.
The matching figures for GTCCGG: 0.894, 0.87 and 0.979.
On to ACTAGA, for which the binding signal in the experiment with ELF3 worked out at 0.961; in the experiment with ETV7, 0.913; with ETV6, 0.883.
The matching figures for GGATAA: 0.857, 0.79 and 0.762.
The matching figures for GGATAC: 0.904, 0.9 and 0.932.
The matching figures for AGAATC: 0.907, 0.945 and 0.903.
Consider CCATAG, for which the binding signal in the experiment with ELF3 stood at 0.931; with ETV7 it was 0.835; in the experiment with ETV6 it was 0.933.
The matching figures for AGTCTT: 0.925, 0.997 and 0.915.
Take ACAGTT: the binding signal with ELF3 is 0.888; in the experiment with ETV7, 0.836; with ETV6, 0.853.
The matching figures for GGGATT: 0.874, 0.829 and 0.815.
The corresponding values for GTCACC are 0.983, 0.869 and 0.911.
Take GTTAGC: the binding signal amounted to 0.888 with ELF3, 0.998 in the experiment with ETV7 and 0.98 with ETV6.
As for TAGAGA, the results for the binding signal in the experiment with ELF3, with ETV7 and with ETV6 were 0.799, 0.816 and 0.813, respectively.
The matching figures for CGCCAT: 0.91, 0.911 and 0.941.
The matching figures for TCGTAT: 1.05, 0.924 and 0.985.
The corresponding values for GGCATA are 0.769, 0.906 and 0.971.
Regarding TTAGTC, the values for the binding signal with ELF3, with ETV7 and with ETV6 were 0.813, 0.747 and 0.766, respectively.
GAATCA: the figures for the binding signal with ELF3, in the experiment with ETV7 and with ETV6 were 0.959, 0.908 and 0.934, respectively.
The matching figures for CACGCA: 1.04, 0.983 and 0.998.
The corresponding values for GGCTTT are 0.966, 1.16 and 1.06.
As for AAGGTC, the binding signal with ELF3 was 0.874; with ETV7, 0.899; in the experiment with ETV6 it was 0.944.
The matching figures for GAGCTC: 0.954, 0.837 and 0.909.
Take ATGGGA: the binding signal with ELF3 turned out to be 0.906; with ETV7, 0.986; in the experiment with ETV6, 0.962.
The corresponding values for TGCAGA are 0.947, 0.983 and 0.983.
The matching figures for AGAGAT: 0.864, 0.931 and 0.859.
The corresponding values for ACCCGT are 0.835, 0.926 and 0.865.
Consider CTGGTG, for which the binding signal is 1.09 with ELF3, 1.04 in the experiment with ETV7 and 1.03 in the experiment with ETV6.
The matching figures for GCGCAC: 0.862, 0.987 and 0.948.
The corresponding values for ATCAGA are 0.922, 0.908 and 0.959.
Regarding TGAATC, the binding signal with ELF3 amounted to 0.872; with ETV7, 0.959; with ETV6, 1.01.
Take AAAGGC: the binding signal in the experiment with ELF3 turned out to be 0.875; with ETV7, 1.03; with ETV6, 0.992.
As to ATCGAC, the binding signal is 1.14 with ELF3, 1.28 with ETV7 and 1.21 in the experiment with ETV6.
On to CGAAGG, for which the values for the binding signal in the experiment with ELF3, in the experiment with ETV7 and with ETV6 were 0.803, 0.912 and 0.956, respectively.
As for TAGGGC, the binding signal is 0.942 with ELF3, 1.07 with ETV7 and 0.987 in the experiment with ETV6.
The matching figures for GGCAGC: 0.785, 0.999 and 0.917.
The matching figures for TCCAGC: 0.894, 0.882 and 0.955.
Regarding TAAGAG, the binding signal came out at 0.944 with ELF3, 0.944 with ETV7 and 0.91 in the experiment with ETV6.
TTGGGA: the binding signal with ELF3 was determined as 0.887; with ETV7, 0.956; with ETV6 it was 0.854.
The corresponding values for GCCACC are 0.912, 0.933 and 0.889.
The corresponding values for GTGGCA are 0.863, 0.984 and 1.05.
The corresponding values for GTTTCT are 1.2, 1.38 and 1.28.
Turning to CGGATC, the figures for the binding signal with ELF3, with ETV7 and with ETV6 were 0.943, 0.946 and 0.954, respectively.
For TTAAGA, the binding signal is 0.886 in the experiment with ELF3, 1.13 with ETV7 and 1.05 with ETV6.
As to AATGGA, the binding signal with ELF3 is 1.05; in the experiment with ETV7 it was 1.03; with ETV6 it was 1.12.
For the sequence TTGGCG, the values for the binding signal in the experiment with ELF3, with ETV7 and with ETV6 were 0.889, 0.949 and 0.969, respectively.
The matching figures for TGTCAG: 0.978, 0.963 and 0.863.
On to AGGGAT, for which the values for the binding signal in the experiment with ELF3, with ETV7 and in the experiment with ETV6 were 0.801, 0.869 and 0.815, respectively.
The corresponding values for CGAGGT are 0.901, 1.02 and 0.938.
The corresponding values for CGCGCA are 0.852, 0.946 and 0.941.
The matching figures for CACCGC: 0.98, 0.978 and 0.995.
Regarding CCAAAG, the binding signal in the experiment with ELF3 came out at 0.843; in the experiment with ETV7, 0.919; with ETV6, 0.836.
With CGTCGA, the binding signal with ELF3 was found to be 0.803; with ETV7, 0.94; in the experiment with ETV6, 0.929.
As for TCGAAG, the results for the binding signal in the experiment with ELF3, with ETV7 and with ETV6 were 0.801, 0.888 and 0.838, respectively.
The matching figures for AGCTCG: 0.994, 0.977 and 0.998.
Regarding AGCTTG, the binding signal came out at 0.823 with ELF3, 0.906 with ETV7 and 0.903 with ETV6.
The matching figures for AAGGGT: 0.998, 1.1 and 0.982.
For GGTCCA, the binding signal is 0.765 in the experiment with ELF3, 0.876 in the experiment with ETV7 and 0.906 with ETV6.
In the case of AACGGT, the binding signal in the experiment with ELF3 was 0.904; with ETV7 it was 0.929; with ETV6 it was 1.01.
TGTAGA: the values for the binding signal in the experiment with ELF3, with ETV7 and with ETV6 were 0.868, 0.973 and 0.902, respectively.
The corresponding values for ACGCGC are 0.927, 0.931 and 0.979.
GAGAAT: the binding signal with ELF3 turned out to be 0.855; with ETV7 it was 0.78; with ETV6 it was 0.761.
The corresponding values for CTAGGG are 0.967, 0.881 and 0.842.
The corresponding values for GATGGA are 0.896, 0.924 and 0.951.
As for TAAGGC, the binding signal amounted to 0.99 with ELF3, 0.94 with ETV7 and 0.931 with ETV6.
The corresponding values for TCAAGA are 0.997, 0.903 and 0.83.
As to CTCGGG, the values for the binding signal with ELF3, in the experiment with ETV7 and with ETV6 were 0.748, 0.985 and 0.958, respectively.
As to GCCATC, the binding signal was determined as 0.874 with ELF3, 0.983 with ETV7 and 0.875 with ETV6.
As for CCACCA, the binding signal in the experiment with ELF3 is 0.96; with ETV7, 0.996; with ETV6 it was 0.977.

The values above are taken from article PMC7862700.
